These are yes or no findings as the source states them, for the method shown. Binding calls can cover weak binding; strength is not graded here. Where a sequence is shown, tags or fusion partners need not be part of it.
Biological target: FcγRII receptor
Test: flow cytometry; 5 µg RIG on 1*10^6 HMC-1 cells, detected with FITC labeled anti human IgG antibody

binding: binds
B1: fusion protein RIG (Fc fusion)
chain: MRRASRDYTKYLRGSEEMGGGPGAPHEGPLHAPPPPAPHQPPAASRSMFVALLGLGLGQVVCSVALFFYFRAQMDPNRISEDGTHCIYRILRLHENADFQDTTLESQDTKLIPDSCRRIKQAFQGAVQKELQHIVGSQHIRAEKAMVDGSWLDLAKRSKLEAQPFAHLTINATDIPSGSHKVSLSSWYHDRGWAKISNMTFSNGKLIVNQDGFYYLYANICFRHHETSGDLATEYLQLMVYVTKTSIKIPSSHTLMKGGSTKYWSGNSEFHFYSINVGGFFKLRSGEEISIEVSNPSLLDPDQDATYFGAFKVRDIDGSEPKSCDKTHTCPPCPAPELLGGPSVFLFPPKPKDTLMISATPEVTCVVVDVSHEDPEVKFMWYVDGVEVHNAKTKPAEEQYNSTYAVVSVLTVLHQDWLNGKEYKCKVSNKALPAPIEKTISKAKGQPAEPQVYTLPPSRDELTYNQVSLTCLVKGFYPSDIAVEWESNGQPENNYKTTPPVLDSDGSFFLYSKLTVDKSRWQQGNVFSCSVMHEALHNHYTQKSLSLSPGK
notes: also called RANKL-Fcγ fusion protein; RIG protein

From US20110243944A1 (SHANGHAI KEXIN BIOTECH, published 2011)
